# Values of other authors, collected in patent US8071348B2, “Protein tyrosine phosphatase substrate-trapping double mutant and uses thereof” (Albert Einstein College of Medicine of Yeshiva University, priority 2002, dated 2011).
# Positions count from the first letter of the chain named. Names and notes keep the numbering of the source.
# B1: PTP1B/D181A, catalytic domain (residues 1 to 321) (protein)
# chain: MEMEKEFEQIDKSGSWAAIYQDIRHEASDFPCRVAKLPKNKNRNRYRDVSPFDHSRIKLHQEDNDYINASLIKMEEAQRSYILTQGPLPNTCGHFWEMVWEQKSRGVVMLNRVMEKGSLKCAQYWPQKEEKEMIFEDTNLKLTLISEDIKSYYTVRQLELENLTTQETREILHFHYTTWPAFGVPESPASFLNFLFKVRESGSLSPEHGPVVVHCSAGIGRSGTFCLADTCLLLMDKRKDPSSVDIKKVLLEMRKFRMGLIQTADQLRFSYLAVIEGAKFIMGDSSVQDQWKELSHEDLEPPPEHIPPPPRPPKRILEPHN
# B2: wild-type PTP1B, catalytic domain (residues 1 to 321) (protein)
# chain: B1 chain with A181D
# B3: C215S: existing PTP1B substrate-trapping mutant, active site Cys215 replaced by Ser (protein, UniProt P18031 1-435, looked up, variant C215S)
# Tyrosine-protein phosphatase …: MEMEKEFEQIDKSGSWAAIYQDIRHEASDFPCRVAKLPKNKNRNRYRDVSPFDHSRIKLHQEDNDYINASLIKMEEAQRSYILTQGPLPNTCGHFWEMVWEQKSRGVVMLNRVMEKGSLKCAQYWPQKEEKEMIFEDTNLKLTLISEDIKSYYTVRQLELENLTTQETREILHFHYTTWPDFGVPESPASFLNFLFKVRESGSLSPEHGPVVVHSSAGIGRSGTFCLADTCLLLMDKRKDPSSVDIKKVLLEMRKFRMGLIQTADQLRFSYLAVIEGAKFIMGDSSVQDQWKELSHEDLEPPPEHIPPPPRPPKRILEPHNGKCREFFPNHQWVKEETQEDKDCPIKEEKGSPLNAAPYGIESMSQDTEVRSRVVGGSLRGAQAASPAKGEPSLPEKDEDHALSYWKPFLVNMCVATVLTAGAYLCYRFLFNSNT
# Test system: Ac-Asp-Ala-Asp-Glu-F2Pmp-Leu-NH2
# Details: ITC, 25° C. and pH 7.0; data from (24); cited from earlier work
Molecule,TΔS,ΔG,ΔH
B1,3.7 ± 0.1 kcal/mol,-10.2 ± 0.1 kcal/mol,-6.5 ± 0.1 kcal/mol
B2,5.1 ± 0.2 kcal/mol,-9.0 ± 0.1 kcal/mol,-3.9 ± 0.2 kcal/mol
B3,-1.2 ± 0.2 kcal/mol,-9.2 ± 0.1 kcal/mol,-10.4 ± 0.2 kcal/mol
